# Results reported in patent US4829051A (Vega Laboratories, Inc., priority 1984, dated 1989).
# Experiment: general procedure: Boc solid-phase peptide synthesis
# Settings: late stage modification step
substance,measurement,value
"1-desamino-[2-Phe, 8-Lys-N^ε (Gly)]-vasopressin",step yield,54.5%
